Assay results as given in the supplement of paper PMC3334620.
The full ranking holds about 33,000 sequences; the median of “E-score (-0.5 to 0.5)” is about -0.0014, and the highest 2% start at about 0.25. This is one part of the list.

molecular target: T1, Cad1 (UniProt P24813); assay: PBM E-score (8-mer binding enrichment) (E-score (-0.5 to 0.5)); higher = stronger / more preferred TF binding; conditions: protein concentration: 100 nM; construct: GST-full length
T1 sequence: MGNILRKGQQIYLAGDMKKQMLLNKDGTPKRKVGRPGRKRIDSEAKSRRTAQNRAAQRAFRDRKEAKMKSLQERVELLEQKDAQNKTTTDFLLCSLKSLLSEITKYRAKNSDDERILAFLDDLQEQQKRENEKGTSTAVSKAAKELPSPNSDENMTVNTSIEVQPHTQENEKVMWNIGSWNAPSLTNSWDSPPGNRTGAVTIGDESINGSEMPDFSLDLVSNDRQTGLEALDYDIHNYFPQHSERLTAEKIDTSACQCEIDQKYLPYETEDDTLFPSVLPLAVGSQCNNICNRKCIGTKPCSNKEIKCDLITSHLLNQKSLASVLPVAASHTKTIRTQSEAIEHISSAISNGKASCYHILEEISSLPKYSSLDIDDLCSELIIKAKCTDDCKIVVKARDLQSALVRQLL
Summary of the method: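 Detection of bound protein used fluorescent anti-GST, with scans normalised by masliner. The proteins were GST-tagged yeast transcription factors applied at about 100-200 nM to universal all-10-mer Agilent arrays made double-stranded by primer extension. Each ungapped eight-base word, pooled with its reverse complement, was scored with an E-score from the Universal PBM Analysis Suite.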

Row | Sequence | PBM E-score
1 | CATACTAC | -0.0173
2 | AGAAACGG | 0.0692
3 | GCTGATTA | 0.378
4 | GACGCGTA | 0.247
5 | AAACAATT | 0.114
6 | AAACGGTG | -0.104
7 | CTTAATGC | 0.0119
8 | CGGTATAG | -0.128
9 | CATCCTTC | -0.208
10 | TACGCCCA | -0.114
11 | GGACGGCC | -0.204
12 | AACAATAT | 0.338
13 | AGGGGAGC | -0.359
14 | CACCGGAG | -0.0402
15 | ACAAACCC | -0.0167
16 | CTAATTAA | 0.147
17 | ATTCGCGG | 0.162
18 | ACATCTCC | -0.00723
19 | ATGCTCAC | -0.153
20 | CCTTCGCC | -0.244
21 | CAATTTAG | 0.13
22 | TAGGTAAA | -0.0826
23 | CGGGTCGC | -0.0916
24 | TGTAGAAA | -0.18
25 | TCTCATAA | 0.0752

Row | Sequence | PBM E-score
26 | AAGTCTAA | -0.0792
27 | TGCTACAA | 0.0619
28 | AACCACTT | -0.0125
29 | AGCTTCCC | -0.225
30 | CCGGATTC | 0.0348
31 | CTCCTACA | -0.0759
32 | AACCTGGA | -0.0733
33 | CCCCTCAG | -0.398
34 | CATACAAC | -0.0145
35 | GGGTTCGA | -0.0275
36 | ACATCTAC | 0.107
37 | TGAGGGCA | -0.168
38 | GGGTCAAC | 0.101
39 | GAAGGAAA | -0.108
40 | GCAGTTAA | 0.044
41 | TCCTACCA | -0.189
42 | ATTCCTTG | -0.0547
43 | CAAATGCG | -0.00119
44 | ATTGAACC | 0.0644
45 | AATATCCC | -0.00553
46 | ATTAGGGC | -0.0576
47 | AACGCTGT | 0.137
48 | AGCCGCAC | -0.00957
49 | AACGTCAG | -0.201
50 | CATCGTTC | 0.0341

Row | Sequence | PBM E-score
51 | AGTGCCGA | 0.0766
52 | GAGATAGC | -0.163
53 | GAACTTCA | 0.066
54 | GGTGTCAA | -0.0544
55 | CGCCTCAC | -0.0432
56 | GCTAAAAC | -0.073
57 | CAGAGTTC | 0.155
58 | CCCGCTAG | -0.0769
59 | CTCTGCGC | 0.0684
60 | AGTATTGC | 0.0133
61 | GGTACAAC | -0.124
62 | CTAGCCTA | -0.0452
63 | CGCCCTTC | -0.164
64 | CCTGACGA | 0.112
65 | AGGACGGG | -0.355
66 | TAGCGTAA | 0.183
67 | CAACCAAC | -0.0616
68 | TTCGGAAA | 0.032
69 | ATTAGATA | 0.211
70 | AGCCTCCA | -0.312
71 | GAATTTCA | 0.0817
72 | CTCATTGC | 0.109
73 | CCAGGCAC | -0.0563
74 | CCCTCTCG | -0.241
75 | TAAACGCA | 0.202

Row | Sequence | PBM E-score
76 | AGATGAAT | 0.00515
77 | AGGGTAAG | -0.0352
78 | GCTAGGTA | 0.0171
79 | TCCCACGA | 0.122
80 | CCGGACTA | -0.0508
81 | CGGCATAC | -0.0115
82 | AAAAACGT | 0.0745
83 | AGGCTTAC | 0.0988
84 | ATTACACG | 0.0358
85 | AACAAATA | 0.186
86 | CACACGAC | -0.0361
87 | AAGTTGTG | 0.0444
88 | GGAGCGAC | 0.0262
89 | CGTTGGGC | -0.0152
90 | GAACTCTA | 0.0411
91 | CCAAAAAA | 0.241
92 | GCTCCCCC | -0.429
93 | AGGCTGAT | -0.124
94 | ACGCATCG | 0.0475
95 | CATACGTA | 0.117
96 | GTGATCTA | 0.113
97 | ACCACATA | 0.0572
98 | ACTCTTGA | -0.108
99 | GGGCATAA | 0.033
100 | TCAATTAA | 0.206

Row | Sequence | PBM E-score
101 | GAACGTAC | -0.00789
102 | ATAACTCA | 0.218
103 | CTCTTTAA | -0.03
104 | ACGCAGAG | -0.0267
105 | GGTTAAGA | -0.0069
106 | AGTGTGGG | -0.0209
107 | AGCAAAGG | -0.00929
108 | GGCGATTA | 0.0143
109 | AATGCTAA | 0.0828
110 | CAGGCGAC | -0.104
111 | ATTTCGAA | 0.169
112 | CTTGTCCC | -0.0227
113 | GAAACTCC | -0.0582
114 | CTTTTATC | 0.00822
115 | TCAGATCA | -0.0851
116 | GTACGAGA | -0.0229
117 | ACATGACC | -0.162
118 | AGTAAGAC | 0.0266
119 | GGTGAAAC | -0.0742
120 | CATCCACA | 0.0323
121 | CGACCATC | -0.156
122 | AACTTGAG | -0.154
123 | ATGTGCTA | -0.0463
124 | AGTAACTC | -0.0448
125 | GTCCCACA | 0.0564

6 entries from above, as a markdown table.

| Row | Sequence | PBM E-score |
| --- | --- | --- |
| 107 | AGCAAAGG | -0.00929 |
| 108 | GGCGATTA | 0.0143 |
| 109 | AATGCTAA | 0.0828 |
| 110 | CAGGCGAC | -0.104 |
| 111 | ATTTCGAA | 0.169 |
| 112 | CTTGTCCC | -0.0227 |

The list goes on.

Row | Sequence | PBM E-score
126 | ATCGAAGG | 0.158
127 | GTGTGAAA | 0.195
128 | GTAGTACA | 0.097
129 | ATCACGAT | 0.00311
130 | ACGCTAAG | -0.142
131 | GGACAGGA | -0.118
132 | GGCAGATA | 0.0222
133 | CCCACCGA | -0.138
134 | ACGCTTTA | 0.0919
135 | TAATCTGA | 0.0309
136 | CGATTTCC | 0.0421
137 | CAGGTCAC | -0.267
138 | CTATCTGA | -0.13
139 | GCCGTCGC | 0.0609
140 | ATGGAGAC | -0.0562
141 | GAGCCCAA | -0.0911
142 | CATGCACC | -0.146
143 | CTCGAGTC | -0.0647
144 | ATTATATC | 0.0433
145 | GGGTTGCA | -0.0385
146 | CTGCGTGA | 0.0364
147 | AAGATTGC | -0.00431
148 | GGTATGAA | 0.123
149 | AAAGTTAT | 0.0695
150 | CCAGATAG | -0.146

Row | Sequence | PBM E-score
151 | CGGTATTC | 0.0714
152 | AAGCTATA | -0.0979
153 | GTTGCGTA | 0.111
154 | CGAAATAC | 0.22
155 | CGTAACGC | 0.133
156 | AGGTCAAG | -0.107
157 | GCAGCTCC | -0.145
158 | CCCGCTTA | 0.121
159 | CAGCCATG | -0.077
160 | AGCAAATA | 0.0703
161 | GGCTCTAA | -0.0431
162 | CAAGGGTC | -0.02
163 | GGTTAGAA | -0.111
164 | TACTAGAA | 0.0443
165 | ACGTAAGC | 0.287
166 | AACGGAGT | 0.212
167 | CGAGGTGC | 0.142
168 | GCTAGCTA | 0.0605
169 | ATCTCGTA | 0.0325
170 | TCTGTCAA | -0.0111
171 | ATGTCCGC | 0.0661
172 | CTGTCTGA | -0.185
